From paper doi:10.1101/345959
Numbering of substitutions follows the chain as printed. These are yes or no findings as the source states them, for the method shown. Binding seen in cells or lysates may run through a third protein. Binding calls can cover weak binding; strength is not graded here. Sequences can lack the tags named with a protein.

The chains behind the UniProt entries cited, without tags or fusion partners. Where a name states a change or a piece, a line headed by the entry shows the natural chain unless it says otherwise.
UniProt Q9D8H7: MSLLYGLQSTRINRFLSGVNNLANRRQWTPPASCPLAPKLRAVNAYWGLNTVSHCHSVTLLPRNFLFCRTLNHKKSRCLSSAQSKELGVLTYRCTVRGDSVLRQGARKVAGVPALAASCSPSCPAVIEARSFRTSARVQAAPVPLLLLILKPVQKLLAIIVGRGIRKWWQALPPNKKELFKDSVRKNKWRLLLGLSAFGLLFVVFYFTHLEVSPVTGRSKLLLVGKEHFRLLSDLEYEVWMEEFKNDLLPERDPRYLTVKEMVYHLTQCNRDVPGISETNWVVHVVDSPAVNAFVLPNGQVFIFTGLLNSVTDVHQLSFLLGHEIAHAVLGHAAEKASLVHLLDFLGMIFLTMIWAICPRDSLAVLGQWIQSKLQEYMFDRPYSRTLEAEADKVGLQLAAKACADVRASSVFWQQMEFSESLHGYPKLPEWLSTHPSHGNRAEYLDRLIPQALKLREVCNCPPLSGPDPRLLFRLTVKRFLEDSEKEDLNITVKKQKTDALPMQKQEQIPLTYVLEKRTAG

Experiments:
Mic19-Flag (human) = target: T1, Mic19-Flag (human) (UniProt Q9NX63); assay: co-IP
T1 sequence: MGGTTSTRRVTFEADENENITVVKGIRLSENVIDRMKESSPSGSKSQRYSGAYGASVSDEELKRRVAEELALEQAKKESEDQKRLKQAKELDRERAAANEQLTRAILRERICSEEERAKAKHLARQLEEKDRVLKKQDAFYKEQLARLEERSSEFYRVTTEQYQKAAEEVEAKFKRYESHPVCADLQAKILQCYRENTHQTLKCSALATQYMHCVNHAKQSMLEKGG

[1] = target: T2, Mic19^ID^33-34VN-Flag (human) (UniProt Q9NX63); assay: co-IP
T2 sequence: T1 sequence with I33V, D34N

binding (Mic19-Flag (human)): binds
binding [1]: binds
Substance: OMA1^E324Q-Myc (from UniProt Q9D8H7) (enzyme)
